Measurements published in PubChem BioAssay AID540275 (National Center for Advancing Translational Sciences (NCATS), 2011).
Hit rate of the full screen: of about 320,000 compounds, about 620 (0.19%) were called active. The shares of active, inactive and inconclusive entries below differ from those in the screen. Cut-off read from the data, not from the text of the source: active = activation above about 80%; inconclusive = between about 30% and that limit; inactive = weaker than that.

Sequences of proteins named here, by UniProt entry; tags and fusion partners are left off.
UniProt Q8NER1, whole entry, looked up: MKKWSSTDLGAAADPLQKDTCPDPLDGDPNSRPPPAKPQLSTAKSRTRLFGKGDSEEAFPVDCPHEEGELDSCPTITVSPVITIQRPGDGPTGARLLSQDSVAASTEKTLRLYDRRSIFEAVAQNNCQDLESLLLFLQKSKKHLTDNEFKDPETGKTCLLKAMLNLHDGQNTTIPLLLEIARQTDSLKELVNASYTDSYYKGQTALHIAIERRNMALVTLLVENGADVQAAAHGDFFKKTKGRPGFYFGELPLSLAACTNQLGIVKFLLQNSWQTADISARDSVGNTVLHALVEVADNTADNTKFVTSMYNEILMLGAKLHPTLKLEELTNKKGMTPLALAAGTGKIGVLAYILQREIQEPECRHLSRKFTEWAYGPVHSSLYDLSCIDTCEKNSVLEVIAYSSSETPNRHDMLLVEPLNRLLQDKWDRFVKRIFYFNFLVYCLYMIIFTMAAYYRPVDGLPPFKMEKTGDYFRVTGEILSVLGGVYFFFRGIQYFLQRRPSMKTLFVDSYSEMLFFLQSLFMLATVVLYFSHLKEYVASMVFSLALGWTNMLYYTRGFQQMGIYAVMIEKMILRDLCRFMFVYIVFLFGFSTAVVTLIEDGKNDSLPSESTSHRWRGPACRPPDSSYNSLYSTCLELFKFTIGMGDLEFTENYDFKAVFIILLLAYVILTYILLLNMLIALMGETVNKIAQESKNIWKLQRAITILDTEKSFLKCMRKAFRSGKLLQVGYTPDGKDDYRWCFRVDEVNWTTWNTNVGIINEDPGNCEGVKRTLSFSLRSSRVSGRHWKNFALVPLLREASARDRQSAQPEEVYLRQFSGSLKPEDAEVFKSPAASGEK

Molecular target: Transient receptor potential cation channel subfamily V member 1 (Homo sapiens) (UniProt Q8NER1)
Test: HTS Assay for Compounds that Act as Agonists of the Vanilloid Receptor 1; note: 0% is about no effect
Details: TRPV1-expressing cells, Fluo-8 calcium influx, agonist mode; at 8.33 µM, stronger effect = higher value
Summary of the method: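 Fluo-8 calcium influx in TRPV1-expressing cells, kinetic read (ex 480/em 520 nm). Compound added and read 3 min for agonist activity, followed by capsaicin at EC20 final and 2 min further read for enhancement.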

SMILES | activation
CCOC(=O)C1CCCN(C(=O)c2cc(S(=O)(=O)N3CCCCC3)ccc2Cl)C1 (configuration not stated) | inconclusive: 34%
C=C(C)Cn1c(CCn2c3ccccc3c3ccccc32)n[nH]c1=S | inactive: 14.4%
Cc1nc(CSc2nnc3scc(-c4ccc(Cl)cc4)n23)cs1 | inconclusive: 45%
N#Cc1c(N)sc2c1CCN(C(=O)OCc1ccccc1)C2 | inconclusive: 43.6%
Fc1ccc(CCNC(=S)Nc2ccc(F)cc2)cc1 | inconclusive: 58.4%
Cc1ccc(N2C(=O)Nc3ccccc3S2(=O)=O)cc1Cl | inconclusive: 68.1%
Cc1cc(C(=O)N2CCC(Cc3ccccc3)CC2)no1 | inconclusive: 40.9%
COc1ccc(NC(=O)c2cccc(S(=O)(=O)N3CCOCC3)c2)cn1 | inconclusive: 38.9%
N#Cc1c(-c2ccc(Br)cc2)nc2n(c1=O)CCCS2 | inactive: -2.04%
Fc1ccc(Br)cc1C1C=C(c2ccc(Br)cc2)Nc2ncnn21 (configuration not stated) | inactive: -1.66%
O=C(NC1CC1)C1CCN(C2CCN(C(=O)CSc3ccccc3)CC2)CC1 | inactive: -3.98%
O=C(Nc1ccccc1)c1ccccc1CCc1ccccc1 | inconclusive: 38.3%
[O-][n+]1onc2c1CCc1c-2nc(-c2ccccc2)n1OCc1ccccc1 | inconclusive: 57.4%
CCOC(=O)c1sc(NC(=O)Nc2ccc(Cl)cc2)cc1C | inconclusive: 45.8%
Cc1sc(NC(=O)c2ccco2)c(CN2CCN(c3ccccc3)CC2)c1C | inconclusive: 32%
O=C(OCC(=O)N1CCCc2ccccc21)c1ccccc1NCCO | inactive: 2.45%
CC(C)CC(=O)N1CCN(S(=O)(=O)c2ccc(F)cc2)CC1 | inconclusive: 43%
O=C(COc1cccc(C(F)(F)F)c1)NCC(c1cccs1)N1CCOCC1 (configuration not stated) | inconclusive: 30.1%
O=C(Cc1cccs1)N1CCN(c2nc(-c3ccc(Cl)cc3)cs2)CC1 | inactive: 18.6%
COc1ccc(C(=O)Nc2ncc3c(n2)CC(c2ccco2)CC3=O)cc1 (configuration not stated) | inconclusive: 48.1%
CCCSc1nnc(NC(=O)Cc2ccc(OC)c(OC)c2)s1 | inconclusive: 60.5%
CCNc1nc(N)c(C(=O)C23CC4CC(CC(C4)C2)C3)s1 | inconclusive: 42.6%
CC(C)CNC(=S)N1CCN(c2nc3ccccc3s2)CC1 | inconclusive: 49.8%
O=C(Nc1ccc(Cl)cc1)Nc1cccc2nsnc12 | active: 86.6%

SMILES | activation
CCCNC(=O)c1ccc(COc2ccc(C(C)(C)C)cc2)o1 | inconclusive: 52%
Cc1ccc(NC(=O)c2ccc(S(=O)(=O)N3CCOCC3)cc2)nc1 | inconclusive: 53.7%
CCOC(=O)Cc1csc(NC(=S)NC(=O)c2ccc(F)cc2)n1 | inconclusive: 50.3%
CCN(CC)c1ccc2cc(S(=O)(=O)c3ccc(C)cc3)c(=O)oc2c1 | inconclusive: 37.7%
Cc1ccc(OC(F)F)c(NC(=O)Nc2cccc(C(F)(F)F)c2)c1 | inactive: -0.509%
Cn1ncc2c(Nc3ccc(Cl)cc3)ncnc21 | inconclusive: 70.1%
CC(=O)c1ccccc1NC(=O)COC(=O)Cc1cccc(C(F)(F)F)c1 | inconclusive: 37.7%
COc1ccc(/C=N/Nc2nc(N3CCCC3)nc(N3CCCC3)n2)cc1O | inconclusive: 66.9%
CNC(=O)NC(=O)C(C)OC(=O)c1cc2c(s1)CCCCC2 (configuration not stated) | inconclusive: 54.2%
Cc1ccc(C(=O)Nc2cc(Cl)ccc2-n2cncn2)o1 | inactive: 0.156%
Fc1ccccc1N1CCN(c2nnnn2-c2ccccc2)CC1 | inconclusive: 37.9%
O=C(c1ccccc1)c1ccc(OCC(O)CN2CCCCC2)cc1 (configuration not stated) | inactive: -5.03%
Cc1ccc(C2C3=C(CCCC3=O)OC3=C2C(=O)CCC3)cc1 | inactive: -3.19%
COc1cc(C(=O)Nc2ccc(N3CCOCC3)cc2)ccc1OCc1c(C)noc1C | inconclusive: 43.2%
Oc1ccccc1N=Cc1c(O)ccc2ccccc12 | active: 97%
CCOC(=O)CC1=C(C(=O)OCC)C(c2ccncc2)C(C#N)=C(N)O1 (configuration not stated) | inactive: -1.87%
CC1(C)C(=O)OC(C(=O)c2ccccc2)C2(CCCCC2)C1=O (configuration not stated) | inconclusive: 45.7%
CCC(NC(=S)NCc1ccc(F)cc1)c1ccc(C(C)C)cc1 (configuration not stated) | inconclusive: 60.7%
COc1cccc(NC(=O)c2ccccc2OCc2c(C)noc2C)c1 | inconclusive: 53.6%
Cc1ccc2c(c1)C(c1ccc(F)cc1)N(C(=O)c1cc3ccccc3oc1=O)CC(=O)N2 (configuration not stated) | inconclusive: 53.8%
Cc1noc(C)c1COc1ccc(C(=O)NNC(=O)c2ccccc2O)cc1 | inactive: -2.93%
Cc1cccc(-n2c(=O)c3c4c(sc3n3c(=S)[nH]nc23)CCC4)c1 | inactive: -0.245%
N#Cc1ccc(N2C(=O)[C@@H]3C(C(=O)C(c4ccccc4)c4ccccc4)=NN[C@@H]3C2=O)cc1 | inactive: 0.879%

A different layout for some results above.
SMILES	activation
Oc1ccccc1N=Cc1c(O)ccc2ccccc12	active: 97%
CCOC(=O)CC1=C(C(=O)OCC)C(c2ccncc2)C(C#N)=C(N)O1 (configuration not stated)	inactive: -1.87%

As a working copy, part of the list above.
SMILES | activation
Cc1noc(C)c1COc1ccc(C(=O)NNC(=O)c2ccccc2O)cc1 | inactive: -2.93%
Cc1cccc(-n2c(=O)c3c4c(sc3n3c(=S)[nH]nc23)CCC4)c1 | inactive: -0.245%
